{"source": "patent EP2382994A1", "about": "“Ligand targeted nanocapsules for the delivery of RNAi and other agents” (Cattaneo, Maurizio Victor, priority 2010, dated 2011)", "origin": "cited, not measured here", "test_system": "advanced stage melanoma", "note": "At least one compound was matched to its structure with a doubt left.", "data": [{"smiles": "CN(C)/N=N/c1[nH]cnc1C(N)=O", "note": "[DAC, Dacarbazine]", "values": [{"measurement": "response rates", "value": "10-20%"}]}]}
